In patent US8597646B2, “Methods and compositons featuring TGF-beta antagonists for the treatment of marfan syndrome and associated disorders” (The Johns Hopkins University, priority 2005, dated 2013):
Entries after “also recorded” stand apart in the source; their conditions may differ.

Test system: mdx mice
Assay: Serum creatine kinase levels in mdx mice
Type: in vivo, mouse
Conditions: n=6 each group, monopotassium salt

## CCCCc1nc(Cl)c(CO)n1Cc1ccc(-c2ccccc2-c2nnn[nH]2)cc1.[K] [losartan, 2-butyl-4-chloro-1-[p-(o-1H-tetrazol-5-ylphenyl)benzyl]imidazole-5-methanol monopotassium salt]
  Creatine kinase levels in the serum, treated versus untreated: did not show any significant differences; also recorded: no statistical significance
